Measured values reported in the supplement of paper PMC11006884.
This is a selection; strong and weak results do not stand in their true shares.

By UniProt entry, the sequences of proteins in these tests, tags left out. Where a name states a change or a piece, a line headed by the entry shows the natural chain unless it says otherwise.
UniProt Q8WTR2: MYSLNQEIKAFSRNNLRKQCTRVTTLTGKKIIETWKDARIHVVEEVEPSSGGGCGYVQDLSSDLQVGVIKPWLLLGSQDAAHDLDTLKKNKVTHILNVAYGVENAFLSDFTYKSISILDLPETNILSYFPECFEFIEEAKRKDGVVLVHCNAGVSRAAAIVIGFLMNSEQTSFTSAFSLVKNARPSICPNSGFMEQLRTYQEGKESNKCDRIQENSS
UniProt Q8ND56: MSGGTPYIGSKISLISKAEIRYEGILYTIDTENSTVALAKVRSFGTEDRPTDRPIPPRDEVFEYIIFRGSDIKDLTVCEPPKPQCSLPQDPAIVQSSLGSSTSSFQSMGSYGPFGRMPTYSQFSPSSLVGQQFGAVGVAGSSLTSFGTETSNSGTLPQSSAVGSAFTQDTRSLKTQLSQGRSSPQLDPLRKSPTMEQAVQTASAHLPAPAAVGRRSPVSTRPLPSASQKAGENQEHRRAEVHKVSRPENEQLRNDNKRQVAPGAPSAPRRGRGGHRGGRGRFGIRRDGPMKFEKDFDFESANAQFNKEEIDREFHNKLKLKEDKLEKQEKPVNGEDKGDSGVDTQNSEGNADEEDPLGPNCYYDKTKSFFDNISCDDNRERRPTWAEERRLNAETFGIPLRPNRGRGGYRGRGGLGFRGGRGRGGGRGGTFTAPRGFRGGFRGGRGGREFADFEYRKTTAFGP
UniProt Q92499: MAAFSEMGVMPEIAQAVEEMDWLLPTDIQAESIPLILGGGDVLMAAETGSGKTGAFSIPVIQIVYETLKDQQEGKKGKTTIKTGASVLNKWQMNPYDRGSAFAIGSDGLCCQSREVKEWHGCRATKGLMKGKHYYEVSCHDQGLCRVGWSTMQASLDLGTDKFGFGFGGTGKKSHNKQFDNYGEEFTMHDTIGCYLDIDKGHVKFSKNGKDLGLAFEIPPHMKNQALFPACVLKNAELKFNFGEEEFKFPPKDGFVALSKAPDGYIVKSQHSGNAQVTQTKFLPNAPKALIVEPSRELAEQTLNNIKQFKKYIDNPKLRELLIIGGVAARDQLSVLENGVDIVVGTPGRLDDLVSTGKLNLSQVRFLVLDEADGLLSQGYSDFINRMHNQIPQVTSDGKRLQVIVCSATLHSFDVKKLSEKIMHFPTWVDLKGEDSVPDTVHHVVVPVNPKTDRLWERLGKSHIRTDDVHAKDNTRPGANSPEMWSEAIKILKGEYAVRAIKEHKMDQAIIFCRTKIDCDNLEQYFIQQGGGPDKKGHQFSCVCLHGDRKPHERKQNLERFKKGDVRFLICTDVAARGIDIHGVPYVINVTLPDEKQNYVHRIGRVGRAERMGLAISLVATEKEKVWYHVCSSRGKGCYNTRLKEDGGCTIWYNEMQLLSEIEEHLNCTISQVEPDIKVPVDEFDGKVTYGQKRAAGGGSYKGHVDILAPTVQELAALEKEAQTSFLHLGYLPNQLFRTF
UniProt Q8WYL5: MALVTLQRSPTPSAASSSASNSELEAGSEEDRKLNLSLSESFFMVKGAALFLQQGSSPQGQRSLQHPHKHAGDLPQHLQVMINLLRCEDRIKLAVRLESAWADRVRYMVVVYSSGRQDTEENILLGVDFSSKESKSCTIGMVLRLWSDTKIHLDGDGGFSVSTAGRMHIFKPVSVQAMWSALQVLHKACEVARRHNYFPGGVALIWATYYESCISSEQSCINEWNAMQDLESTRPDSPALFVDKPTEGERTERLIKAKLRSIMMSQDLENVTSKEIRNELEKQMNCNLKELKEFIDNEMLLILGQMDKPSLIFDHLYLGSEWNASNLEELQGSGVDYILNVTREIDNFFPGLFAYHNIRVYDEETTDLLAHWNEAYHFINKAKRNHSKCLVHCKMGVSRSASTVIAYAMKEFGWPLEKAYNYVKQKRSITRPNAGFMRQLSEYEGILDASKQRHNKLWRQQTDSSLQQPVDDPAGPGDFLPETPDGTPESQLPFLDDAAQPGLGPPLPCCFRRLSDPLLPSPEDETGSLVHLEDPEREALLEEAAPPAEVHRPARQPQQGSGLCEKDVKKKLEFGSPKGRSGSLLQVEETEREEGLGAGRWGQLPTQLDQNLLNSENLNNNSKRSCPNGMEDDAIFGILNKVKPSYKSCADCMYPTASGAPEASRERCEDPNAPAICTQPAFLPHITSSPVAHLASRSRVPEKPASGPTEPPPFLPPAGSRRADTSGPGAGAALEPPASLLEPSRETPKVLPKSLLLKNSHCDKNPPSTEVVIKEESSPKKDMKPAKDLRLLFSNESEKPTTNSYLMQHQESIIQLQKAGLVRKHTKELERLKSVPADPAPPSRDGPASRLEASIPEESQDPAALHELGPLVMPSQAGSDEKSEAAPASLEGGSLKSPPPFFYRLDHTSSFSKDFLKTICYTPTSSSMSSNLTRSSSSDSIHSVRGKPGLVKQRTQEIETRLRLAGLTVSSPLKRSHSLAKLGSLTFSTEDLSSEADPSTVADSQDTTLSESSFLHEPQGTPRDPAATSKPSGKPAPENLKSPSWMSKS
UniProt Q8N300: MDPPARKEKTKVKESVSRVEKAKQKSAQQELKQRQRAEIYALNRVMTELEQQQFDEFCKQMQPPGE
UniProt Q8NDH3: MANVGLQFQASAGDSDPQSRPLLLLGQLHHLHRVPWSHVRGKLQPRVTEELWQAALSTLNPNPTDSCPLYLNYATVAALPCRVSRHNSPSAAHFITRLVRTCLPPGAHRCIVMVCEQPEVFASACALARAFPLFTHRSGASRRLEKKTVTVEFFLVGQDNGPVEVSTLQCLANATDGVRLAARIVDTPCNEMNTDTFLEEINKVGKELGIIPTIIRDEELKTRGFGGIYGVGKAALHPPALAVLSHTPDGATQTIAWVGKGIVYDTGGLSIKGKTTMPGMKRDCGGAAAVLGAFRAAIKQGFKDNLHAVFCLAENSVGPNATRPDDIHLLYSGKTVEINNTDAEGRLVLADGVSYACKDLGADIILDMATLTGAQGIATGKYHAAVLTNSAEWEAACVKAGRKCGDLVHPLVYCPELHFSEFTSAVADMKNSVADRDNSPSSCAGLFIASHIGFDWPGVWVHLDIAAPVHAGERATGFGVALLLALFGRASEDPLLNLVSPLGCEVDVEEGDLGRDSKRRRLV
UniProt Q8TEX9: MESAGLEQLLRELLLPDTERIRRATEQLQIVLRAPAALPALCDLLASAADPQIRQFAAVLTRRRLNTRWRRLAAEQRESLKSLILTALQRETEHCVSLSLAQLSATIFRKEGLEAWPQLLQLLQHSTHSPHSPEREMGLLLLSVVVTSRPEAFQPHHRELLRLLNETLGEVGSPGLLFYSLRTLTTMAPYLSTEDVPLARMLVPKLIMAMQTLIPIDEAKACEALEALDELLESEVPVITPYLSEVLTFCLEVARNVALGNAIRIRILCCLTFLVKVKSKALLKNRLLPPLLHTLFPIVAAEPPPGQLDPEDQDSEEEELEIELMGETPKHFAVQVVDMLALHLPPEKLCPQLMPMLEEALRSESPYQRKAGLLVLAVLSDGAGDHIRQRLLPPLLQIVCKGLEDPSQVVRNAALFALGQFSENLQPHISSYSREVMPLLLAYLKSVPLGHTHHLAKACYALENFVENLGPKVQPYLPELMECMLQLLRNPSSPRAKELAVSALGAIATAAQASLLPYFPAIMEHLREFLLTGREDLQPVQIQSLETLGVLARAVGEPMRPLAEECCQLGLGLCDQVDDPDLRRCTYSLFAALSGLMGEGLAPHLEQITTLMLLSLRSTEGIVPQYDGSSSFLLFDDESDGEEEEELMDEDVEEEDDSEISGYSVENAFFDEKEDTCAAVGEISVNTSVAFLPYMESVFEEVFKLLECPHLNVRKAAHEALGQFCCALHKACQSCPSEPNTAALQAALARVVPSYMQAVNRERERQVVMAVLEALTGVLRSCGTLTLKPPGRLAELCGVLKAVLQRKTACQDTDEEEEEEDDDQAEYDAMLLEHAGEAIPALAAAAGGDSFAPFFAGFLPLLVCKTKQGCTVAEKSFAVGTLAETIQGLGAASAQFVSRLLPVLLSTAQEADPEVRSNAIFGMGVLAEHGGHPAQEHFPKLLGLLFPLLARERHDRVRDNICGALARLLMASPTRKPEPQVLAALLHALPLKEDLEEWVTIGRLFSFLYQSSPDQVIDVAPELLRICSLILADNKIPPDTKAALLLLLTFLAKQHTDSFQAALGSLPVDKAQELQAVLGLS
UniProt Q8TAQ2, whole entry: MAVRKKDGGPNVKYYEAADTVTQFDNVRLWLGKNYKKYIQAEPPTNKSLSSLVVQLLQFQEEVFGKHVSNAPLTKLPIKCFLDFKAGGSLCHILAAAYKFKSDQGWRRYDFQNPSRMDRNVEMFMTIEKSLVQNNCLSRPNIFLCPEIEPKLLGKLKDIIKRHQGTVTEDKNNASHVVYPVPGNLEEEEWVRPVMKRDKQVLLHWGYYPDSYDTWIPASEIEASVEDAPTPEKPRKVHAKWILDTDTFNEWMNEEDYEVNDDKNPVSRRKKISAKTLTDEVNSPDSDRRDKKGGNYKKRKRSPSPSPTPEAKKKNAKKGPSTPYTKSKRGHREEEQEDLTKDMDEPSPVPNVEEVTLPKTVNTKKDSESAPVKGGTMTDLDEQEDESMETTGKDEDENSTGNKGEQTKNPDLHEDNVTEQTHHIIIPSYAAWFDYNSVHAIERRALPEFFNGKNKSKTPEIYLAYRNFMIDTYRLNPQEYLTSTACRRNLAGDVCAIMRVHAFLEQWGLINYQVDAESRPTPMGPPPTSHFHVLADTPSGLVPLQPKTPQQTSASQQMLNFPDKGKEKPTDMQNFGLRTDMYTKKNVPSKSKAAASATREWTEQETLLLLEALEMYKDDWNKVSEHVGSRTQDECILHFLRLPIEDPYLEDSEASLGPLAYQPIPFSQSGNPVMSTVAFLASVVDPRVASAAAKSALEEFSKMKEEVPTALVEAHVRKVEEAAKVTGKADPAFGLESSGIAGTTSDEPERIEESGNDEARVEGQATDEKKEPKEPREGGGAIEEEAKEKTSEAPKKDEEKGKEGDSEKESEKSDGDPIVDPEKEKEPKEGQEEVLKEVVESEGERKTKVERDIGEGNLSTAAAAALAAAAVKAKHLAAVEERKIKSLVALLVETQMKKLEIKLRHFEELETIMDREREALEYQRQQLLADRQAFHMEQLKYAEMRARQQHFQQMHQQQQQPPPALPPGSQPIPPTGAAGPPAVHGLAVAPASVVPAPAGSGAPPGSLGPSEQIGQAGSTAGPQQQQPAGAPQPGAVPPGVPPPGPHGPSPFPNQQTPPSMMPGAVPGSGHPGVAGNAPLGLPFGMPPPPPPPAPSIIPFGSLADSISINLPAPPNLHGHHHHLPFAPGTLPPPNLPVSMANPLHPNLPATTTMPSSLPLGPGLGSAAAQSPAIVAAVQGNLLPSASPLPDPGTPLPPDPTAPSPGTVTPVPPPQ
UniProt Q8N6M0: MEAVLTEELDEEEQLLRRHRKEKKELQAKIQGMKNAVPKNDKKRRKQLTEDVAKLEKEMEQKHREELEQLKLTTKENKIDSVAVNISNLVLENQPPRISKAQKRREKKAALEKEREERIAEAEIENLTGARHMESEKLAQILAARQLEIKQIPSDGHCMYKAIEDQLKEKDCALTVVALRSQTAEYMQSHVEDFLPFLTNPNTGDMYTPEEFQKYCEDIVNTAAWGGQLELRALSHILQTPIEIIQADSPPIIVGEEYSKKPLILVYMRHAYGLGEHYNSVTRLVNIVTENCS
UniProt Q8NI36: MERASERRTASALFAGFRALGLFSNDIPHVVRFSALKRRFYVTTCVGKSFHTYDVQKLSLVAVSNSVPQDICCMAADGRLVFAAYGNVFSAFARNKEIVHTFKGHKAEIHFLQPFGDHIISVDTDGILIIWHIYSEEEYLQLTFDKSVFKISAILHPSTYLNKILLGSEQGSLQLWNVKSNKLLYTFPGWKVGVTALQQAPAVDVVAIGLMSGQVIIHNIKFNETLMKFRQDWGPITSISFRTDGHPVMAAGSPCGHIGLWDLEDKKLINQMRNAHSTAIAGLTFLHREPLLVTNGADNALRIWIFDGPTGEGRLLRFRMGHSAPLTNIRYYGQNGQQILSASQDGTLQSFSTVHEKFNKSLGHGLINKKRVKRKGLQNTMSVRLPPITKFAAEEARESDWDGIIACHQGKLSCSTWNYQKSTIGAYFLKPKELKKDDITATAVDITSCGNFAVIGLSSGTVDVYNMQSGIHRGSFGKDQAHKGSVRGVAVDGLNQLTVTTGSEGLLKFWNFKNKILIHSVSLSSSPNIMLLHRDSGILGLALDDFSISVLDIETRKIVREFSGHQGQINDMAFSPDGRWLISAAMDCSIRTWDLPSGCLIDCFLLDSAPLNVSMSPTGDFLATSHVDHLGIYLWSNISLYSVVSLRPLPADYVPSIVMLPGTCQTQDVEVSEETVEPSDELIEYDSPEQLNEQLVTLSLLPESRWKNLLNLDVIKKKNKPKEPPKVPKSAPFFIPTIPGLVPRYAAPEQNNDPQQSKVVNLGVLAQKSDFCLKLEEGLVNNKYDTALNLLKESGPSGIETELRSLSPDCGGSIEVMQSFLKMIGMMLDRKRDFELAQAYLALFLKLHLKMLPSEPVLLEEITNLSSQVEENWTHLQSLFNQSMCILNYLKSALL

Compound: COC(=O)C#Cc1ccccc1 [methyl 3-phenylpropiolate]
Experiment: log2 ratio of iodoacetamide-alkyne labeling of the cysteine site, DMSO over compound (competition); higher = stronger covalent engagement of the cysteine by the compound, active = 1 or more
Conditions: 500 µM; treatment time 1 h; system: HEK293T cell lysate
Summary of the method: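 The log2 competition ratio per cysteine is defined as mean reporter intensity in control channels over mean reporter intensity in compound channels. Lysate from HEK293T cells (2 mg/mL) received electrophile (500 µM) or vehicle for 1 h at ambient temperature, followed by iodoacetamide alkyne for 1 h. Samples were clicked to sCIP-TMT reagents, pooled, trypsin-digested overnight at 37 °C, streptavidin-enriched, acid-eluted and run on Orbitrap Eclipse LC-MS/MS with FAIMS, with quantification in FragPipe. Three replicates with duplicate channels were used, and any cysteine quantified in only one replicate was excluded.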

| Target | log2 ratio of iodoacetamide-alkyne labeling |
| --- | --- |
| UniProt Q8WZA9_C443 | inactive: 0.36 |
| UniProt Q8NFC6_C2164 | inactive: 0.286 |
| ASCC3 C742 (UniProt Q8N3C0) | inactive: 0.933 |
| UniProt Q8N6R0_C226 | inactive: 0.074 |
| MTMR14 C429 (UniProt Q8NCE2) | inactive: 0.908 |
| MRPL43 C91 (UniProt Q8N983) | inactive: 0.196 |
| DUSP19 C188 (UniProt Q8WTR2) | inactive: 0.264 |
| PPP4R1 C261 (UniProt Q8TF05) | inactive: 0.0823 |
| UniProt Q8N1I0_C1723 | active: 1.34 |
| SUPT20H C255 (UniProt Q8NEM7) | inactive: 0.406 |
| LSM14A C85 (UniProt Q8ND56) | inactive: 0.608 |
| NKAP C349 (UniProt Q8N5F7) | inactive: 0.496 |
| DDX1 C231 (UniProt Q92499) | inactive: 0.159 |
| PPM1E C4 (UniProt Q8WY54) | inactive: 0.248 |
| UniProt Q8WYL5_C626 | active: 1.19 |
| PREX1 C52 (UniProt Q8TCU6) | inactive: 0.192 |
| SVBP C58 (UniProt Q8N300) | inactive: -0.0114 |
| PDCD6IP C250 (UniProt Q8WUM4) | inactive: 0.0203 |
| RDH13 C30 (UniProt Q8NBN7) | inactive: 0.116 |

| Target | log2 ratio of iodoacetamide-alkyne labeling |
| --- | --- |
| UBR7 C424 (UniProt Q8N806) | inactive: 0.287 |
| NPEPL1 C504 (UniProt Q8NDH3) | inactive: -0.0356 |
| RNF10 C483 (UniProt Q8N5U6) | inactive: 0.149 |
| PALLD C964 (UniProt Q8WX93) | inactive: 0.821 |
| SIRT6 C18 (UniProt Q8N6T7) | inactive: 0.0448 |
| UniProt Q8N726_C123 | inactive: 0.8 |
| GPT2 C142 (UniProt Q8TD30) | inactive: 0.269 |
| BANP C113 (UniProt Q8N9N5) | inactive: 0.609 |
| IPO4 C782 (UniProt Q8TEX9) | inactive: 0.597 |
| SMARCC2 C145 (UniProt Q8TAQ2) | inactive: 0.428 |
| PPHLN1 C309 (UniProt Q8NEY8) | inactive: 0.444 |
| UniProt Q8WZA9_C152 | inactive: 0.611 |
| DDHD1 C83 (UniProt Q8NEL9) | inactive: 0.345 |
| UniProt Q8WVV9_C84 | inactive: 0.263 |
| OTUD6B C292 (UniProt Q8N6M0) | inactive: 0.741 |
| RB1CC1 C1413 (UniProt Q8TDY2) | inactive: 0.483 |
| WDR36 C866 (UniProt Q8NI36) | inactive: 0.645 |
| UniProt Q8WYQ9_C362 | inactive: 0.818 |

2 records drawn at random from those above:

| Target | log2 ratio of iodoacetamide-alkyne labeling |
| --- | --- |
| RNF10 C483 (UniProt Q8N5U6) | inactive: 0.149 |
| GPT2 C142 (UniProt Q8TD30) | inactive: 0.269 |
